Consider 2 substances from PMC8406308.

Results are given in words; binding and its absence hold for the method and conditions named. In cells and extracts the contact can be indirect. Binding can be weak; no strength is given. Sequences can lack the tags named with a protein.

In this assay the target is T1, Flag-API5 (apoptosis inhibitor 5) (Gallus (chicken)) (UniProt Q5ZMW3).
T1 sequence: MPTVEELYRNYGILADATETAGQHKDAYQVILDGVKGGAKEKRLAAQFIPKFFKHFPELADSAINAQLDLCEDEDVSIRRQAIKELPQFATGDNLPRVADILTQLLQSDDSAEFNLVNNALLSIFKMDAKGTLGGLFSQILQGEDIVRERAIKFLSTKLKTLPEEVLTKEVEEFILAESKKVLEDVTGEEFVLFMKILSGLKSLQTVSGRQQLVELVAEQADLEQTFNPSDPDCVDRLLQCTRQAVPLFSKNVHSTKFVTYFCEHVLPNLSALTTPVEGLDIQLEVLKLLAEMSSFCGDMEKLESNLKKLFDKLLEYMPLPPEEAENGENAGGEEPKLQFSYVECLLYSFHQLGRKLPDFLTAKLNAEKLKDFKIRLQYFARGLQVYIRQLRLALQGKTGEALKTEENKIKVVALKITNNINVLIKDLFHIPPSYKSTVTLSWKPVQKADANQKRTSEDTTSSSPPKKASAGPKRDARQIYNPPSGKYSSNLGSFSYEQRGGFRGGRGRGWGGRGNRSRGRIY
Nature of the assay: co-IP; HEK293T cells cotransfected for 48 h, lysed in NP-40 buffer; precipitated with anti-Flag, anti-Myc or anti-GFP mouse MAb and protein A/G agarose at 4°C; Western blot. For orientation: Immunoblotting shows a protein as a band on a membrane.

“Myc-VP3ΔCC2 (infectious bursal disease virus (IBDV)) (domain or fragment)”: the binding entry is recorded as “binds”.

On to “Myc-VP3ΔCC1 (infectious bursal disease virus (IBDV)) (domain or fragment)”, for which the binding result is reported as “binds”.
